Laboratory results: patent publication US20250129052A1, “PYRAZINE COMPOUNDS FOR THE CONTROL OF INVERTEBRATE PESTS” (priority 2021, published 2025)
Some of these results come from one statement about several compounds together.

Columns and labels:
Assay type in all cases: in vivo
[1] = system: tobacco budworm (Heliothis virescens); assay: B.2 Tobacco budworm, insect diet with eggs in microtiter plates; details: 2500 ppm; 5 days; egg and larval mortality
Experimental: B.2 Tobacco Budworm (Heliothis virescens)
For evaluating control of tobacco budworm (Heliothis virescens), the test unit consisted of 96-well-microtiter plates containing an insect diet and 15-25 H. virescens eggs.
The compounds were formulated using a solution containing 75% v/v water and 25% v/v DMSO. Different concentrations of formulated compounds were sprayed onto the insect diet at 10 μl, using a custom-built micro atomizer, at two replications.
After application, microtiter plates were incubated at about 28±1° C. and about 80±5% relative humidity for 5 days. Egg and larval mortality was then visually assessed.

[2] = system: green peach aphid (Myzus persicae); assay: B.1 Green peach aphid, systemic, artificial diet in microtiter plates; details: 2500 ppm, 3 days
Description: B.1 Green Peach Aphid (Myzus persicae)
For evaluating control of green peach aphid (Myzus persicae) through systemic means, the test unit consisted of 96-well-microtiter plates containing liquid artificial diet under an artificial mem brane.
The compounds were formulated using a solution containing 75% v/v water and 25% v/v DMSO. Different concentrations of formulated compounds were pipetted into the aphid diet, using a custom built pipetter, at two replications.
After application, 5-8 adult aphids were placed on the artificial membrane inside the microtiter plate wells. The aphids were then allowed to suck on the treated aphid diet and incubated at about 23±1° C. and about 50±5% relative humidity for 3 days. Aphid mortality and fecundity was then visually assessed.

[3] = system: Southern Armyworm (Spodoptera eridania), 2nd Instar Larvae; assay: B.4 Southern armyworm, 2nd instar larvae, sprayed lima bean plants; details: 300 ppm; 4 days after treatment; foliar spray
Experimental: B.4. Southern Armyworm (Spodoptera eridania), 2nd Instar Larvae
The active compounds were formulated by a Tecan liquid handler in 100% cyclohexanone as a 10,000-ppm solution supplied in tubes. The 10,000-ppm solution was serially diluted in 100% cyclohexanone to make interim solutions. These served as stock solutions for which final dilutions were made by the Tecan in 50% acetone:50% water (v/v) into 10 or 20 ml glass vials. A non-ionic surfactant (Kinetic@) was included in the solution at a volume of 0.01% (v/v). The vials were then inserted into an automated electrostatic sprayer equipped with an atomizing nozzle for application to plants/insects. Lima bean plants (variety Sieva) were grown 2 plants to a pot and selected for treatment at the 1st true leaf stage. Test solutions were sprayed onto the foliage by an automated electrostatic plant sprayer equipped with an atomizing spray nozzle. The plants were dried in the sprayer fume hood and then removed from the sprayer. Each pot was placed into perforated plastic bags with a zip closure. Ten to 11 armyworm larvae were placed into the bag and the bags zipped closed. Test plants were maintained in a growth room at about 25° C. and about 20-40% relative humidity for 4 days, avoiding direct exposure to fluorescent light (14:10 light:dark photoperiod) to prevent trapping of heat inside the bags. Mortality and reduced feeding were assessed 4 days after treatment, compared to untreated control plants.

[4] = system: yellow fever mosquito (Aedes aegypti); details: 2500 ppm; 2 days; larval mortality
Experimental: B.5 Yellow Fever Mosquito (Aedes aegypti)
For evaluating control of yellow fever mosquito (Aedes aegypti) the test unit consisted of 96-well-microtiter plates containing 200 μl of tap water per well and 5-15 freshly hatched A. aegypti larvae.
The active compounds were formulated using a solution containing 75% (v/v) water and 25% (v/v) DMSO. Different concentrations of formulated compounds or mixtures were sprayed onto the insect diet at 2.5 μl, using a custom-built micro atomizer, at two replications.
After application, microtiter plates were incubated at 28±1° C., 80±5% RH for 2 days. Larval mortality was then visually assessed.

[5] = system: boll weevil (Anthonomus grandis); assay: B.3 Boll weevil, insect diet with eggs in microtiter plates; details: 2500 ppm; 5 days; egg and larval mortality
Experimental: B.3 Boll Weevil (Anthonomus grandis)
For evaluating control of boll weevil (Anthonomus grandis), the test unit consisted of 96-well-microtiter plates containing an insect diet and 5-10 A. grandis eggs.
The compounds were formulated using a solution containing 75% v/v water and 25% v/v DMSO. Different concentrations of formulated compounds were sprayed onto the insect diet at 5 μl, using a custom-built micro atomizer, at two replications.
After application, microtiter plates were incubated at about 25±1° C. and about 75±5% relative humidity for 5 days. Egg and larval mortality was then visually assessed.

Measured: mortality in comparison with untreated controls

CC(NC(=O)c1cc(C(F)(F)F)cc(C2(C#N)CC2)c1)c1nccnc1-c1ncn(C)n1 (racemic) [Compound I1-2]
at least 75%: all assays above

CC(c1nccnc1-c1ncn(C)n1)N(CC1CC1)C(=O)c1cc(C(F)(F)F)cc(C2(C#N)CC2)c1 (racemic) [Compound I1-3]
at least 75%: all assays above

CC(NC(=O)c1cc(Cl)cc(C(F)(F)F)c1)c1nccnc1-c1ncn(S(C)(=O)=O)n1 (racemic) [Compound I1-6]
not listed: [1]
at least 75%: all other assays above

C=CCn1cnc(-c2nccnc2C(C)NC(=O)c2cc(Cl)cc(C(F)(F)F)c2)n1 (racemic) [Compound I1-8]
at least 75%: all assays above

CCn1cnc(-c2nccnc2C(C)NC(=O)c2cc(Cl)cc(C(F)(F)F)c2)n1 (racemic) [Compound I1-9]
not listed: [3]
at least 75%: all other assays above

COCn1cnc(-c2nccnc2C(C)NC(=O)c2cc(Cl)cc(Cl)c2)n1 (racemic) [Compound I1-10]
not listed: [1]
at least 75%: all other assays above

CC(NC(=O)c1cc(Br)cc(C(F)(F)F)c1)c1nccnc1-c1ncn(CC(=O)N(C)C)n1 (racemic) [Compound I1-15]
at least 75%: [2] | [4] | [5]
